# Measured values as given in patent US11202835B2, “Method of controlled competitive exchange” (Anteo Technologies Pty Ltd, priority 2015, dated 2021).
# System: mouse IgG
# Test: Competitive release of 5-carboxyfluorescein (first agent) from metal complex activated magnetic particles by mouse IgG
# Details: FIG. 2
compound,measurement,setting,value
O=C(O)c1ccc2c(c1)C(=O)OC21c2ccc(O)cc2Oc2cc(O)ccc21 [5-carboxyfluorescein],"release of 5-carboxyfluorescein from the particles, effect of first agent binding temperature",first agent bound at 45° C. compared to 25° C.,significantly less
same,release of 5-carboxyfluorescein from the particles into the supernatant,"various mouse IgG concentrations (50-1250 μg/mL), 30 minutes",increasing mouse IgG concentration correlated with a greater release
